Measured values as given in PMC7819943, “Rice protein-binding microarrays: a tool to detect cis-acting elements near promoter regions in rice”.
The list shows a part of the results.

Chains of the proteins cited; added tags and fusions are not shown.
UniProt Q0JBA9, entry or part of it: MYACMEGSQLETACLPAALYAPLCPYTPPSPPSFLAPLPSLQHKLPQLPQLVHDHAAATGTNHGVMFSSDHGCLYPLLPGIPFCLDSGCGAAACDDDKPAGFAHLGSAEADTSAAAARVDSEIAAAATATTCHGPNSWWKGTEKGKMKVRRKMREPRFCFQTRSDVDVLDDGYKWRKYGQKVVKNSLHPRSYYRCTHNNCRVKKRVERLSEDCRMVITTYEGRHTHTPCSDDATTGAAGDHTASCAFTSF

What follows are sequences tested against OsWRKY34 (Oryza sativa, UniProt Q0JBA9 1-250) (assay: protein-binding microarray (RPBM); PBS, 2% BSA, 51.3 ng/ul salmon testes DNA, 50 uM zinc acetate, 200 nM TF, 25 C, 1 h; high values mean tight binding). Details: protein: recombinant; tags: N-terminal polyhistidine and DsRed monomer fusion (pET32a); label: CyDye5-dUTP incorporated in the synthesized complementary strand; 3' TTTTT single-stranded linker to array surface; dsDNA, one strand shown.
Procedure, shortened: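 For the binding signal, per-feature fluorescence intensity was read in arbitrary units on an Axon 4000B scanner. Before scanning, a 2% BSA-blocked custom Agilent array made double-stranded with Cy5-dUTP was washed after 1 h at 25 °C with 200 nM protein and 50 µM zinc acetate. The proteins were Ni–NTA-purified transcription factors with N-terminal polyhistidine and DsRed fusions, expressed in E. coli BL21-CodonPlus.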

Sequence	binding signal
TGACAATTTAAAGGACCTGAAGTGAACGGCCTACTCTAATCGGAGTCACCTAGTGCAG	8920 fluorescence intensity (a.u.)
TTTAGCCCATTTCTCCATACATAAACTGTTTTATATTTGACGGAGTCACCTAGTGCAG	8360 fluorescence intensity (a.u.)
TGGATCGTTCATTCGTTTTATGTGTCCGAGGCATTATTGGCGGAGTCACCTAGTGCAG	9650 fluorescence intensity (a.u.)
ATGCTTCATAACCATCCCGTTCGTGCTCTTAGCCTCTTACCGGAGTCACCTAGTGCAG	9140 fluorescence intensity (a.u.)
CTACAGACATTAACCTTTTTTGTGGTGGGTTCTAGCTCTACGGAGTCACCTAGTGCAG	12800 fluorescence intensity (a.u.)
CCGCCTCCGCACTGCATTCCTTCCAGTTCGTTTCGTTGCCCGGAGTCACCTAGTGCAG	8020 fluorescence intensity (a.u.)
CTGCCATTACTCCGATTTCCGTCTCTTTCCGCTGCTTCGTCGGAGTCACCTAGTGCAG	12500 fluorescence intensity (a.u.)
CTTCGTTGGTAATCCGGTTGATTTCGGACTAATTAGTTGTCGGAGTCACCTAGTGCAG	8520 fluorescence intensity (a.u.)
TCCCGAGCCTTCACTGTTGTCACTTCCATCGGCATCCGTTCGGAGTCACCTAGTGCAG	13800 fluorescence intensity (a.u.)
ATCCTTGCCCTGCTATCATTGGTTCCTCGTATAAAGTTCACGGAGTCACCTAGTGCAG	11100 fluorescence intensity (a.u.)
GGTCTTTCTGTTCCGTATGGACCGCTTGTGTATTCTGTCACGGAGTCACCTAGTGCAG	12000 fluorescence intensity (a.u.)
CCTGCATCATTGGGAGCTCTCTCTCCTTCCCTTCTTTTCTCGGAGTCACCTAGTGCAG	8220 fluorescence intensity (a.u.)
CCGCACAATCCGCGCCGCCATCAGTTCGCTCTCGCCACCACGGAGTCACCTAGTGCAG	9020 fluorescence intensity (a.u.)
CTCATTCCTTTGATAAAAATAATGTGTGTTTTTTCTGCTACGGAGTCACCTAGTGCAG	8590 fluorescence intensity (a.u.)
TCCACGTGAAGACGACCTCGACACATGCCCAATATTTCCACGGAGTCACCTAGTGCAG	8940 fluorescence intensity (a.u.)
GTCTCGCTCACGCAGTCACCCGCACGCGTGGCGCCCACTCCGGAGTCACCTAGTGCAG	8350 fluorescence intensity (a.u.)
GTTTCACCGGGCAACAAGGATGTTTGCCCGTGCAGTTTGACGGAGTCACCTAGTGCAG	8100 fluorescence intensity (a.u.)
TTGTTTTTTTTTCGTCTGCTTTACCAACACAGGCCATGGTCGGAGTCACCTAGTGCAG	8050 fluorescence intensity (a.u.)
TGTTCTCAAATCGATCTCTGTCTCCGGCTCCACTTCGGTCCGGAGTCACCTAGTGCAG	8660 fluorescence intensity (a.u.)
GTCTTATTGTGGTTGGGAGTTTAACGGTGTACCGAAGAAACGGAGTCACCTAGTGCAG	8780 fluorescence intensity (a.u.)
CATTGCTGACCCAAGAGACCGTCTCATATGCTTCATTTCTCGGAGTCACCTAGTGCAG	10300 fluorescence intensity (a.u.)

Sequence	binding signal
AAGAACATTGTGACATTGGATTTCTTTTCTTCTTTTTTTTCGGAGTCACCTAGTGCAG	8760 fluorescence intensity (a.u.)
CCTCTCATCGTATTCATGCTTTCTCCTGTCATTCTGTCGACGGAGTCACCTAGTGCAG	8570 fluorescence intensity (a.u.)
ATAACTGCTCACCGAGGTAAATCTCTAGTTCCAGACATTTCGGAGTCACCTAGTGCAG	9770 fluorescence intensity (a.u.)
AAGAATACTTCAGTTTGGATAAGCACGTAATGACCAAATCCGGAGTCACCTAGTGCAG	8330 fluorescence intensity (a.u.)
GCCTGATGCTGGTTTCTACAAAATATTGATGTTTTTCATGCGGAGTCACCTAGTGCAG	8580 fluorescence intensity (a.u.)
TGTCTTATTCTTGTCGATGTTAGAGTTTTTTTTTAACAGTCGGAGTCACCTAGTGCAG	8140 fluorescence intensity (a.u.)
TGTGGTTCAGTAATTGGTAATGGTATGTCTAGAGAAAATACGGAGTCACCTAGTGCAG	9430 fluorescence intensity (a.u.)
AAATTTCGGGGTGGGATCTAAACATAGCCTAAAAACAGAACGGAGTCACCTAGTGCAG	11500 fluorescence intensity (a.u.)
CACACATGTACAAATTTTACGCTGGATTTTATTTTCTGTTCGGAGTCACCTAGTGCAG	8620 fluorescence intensity (a.u.)
CTCGCTCTCGCCGCCGCTCGGAAGCGGTCGCCGGCGTCATCGGAGTCACCTAGTGCAG	9100 fluorescence intensity (a.u.)
TTGGTCAACTGTAACATTTGACCATCCGATTTTTTTTAGACGGAGTCACCTAGTGCAG	8390 fluorescence intensity (a.u.)
ATCTTTTCTCTTCTCGACTTCTCGTATGCCGCGTCCCGTCCGGAGTCACCTAGTGCAG	11100 fluorescence intensity (a.u.)
CCTGTATATATGCTCGCATTGTGTCCAACCTTTCGCATCACGGAGTCACCTAGTGCAG	9560 fluorescence intensity (a.u.)
AAACGGGCTGACTCATCATCACTCATCCAATTCCCATCCCCGGAGTCACCTAGTGCAG	8760 fluorescence intensity (a.u.)
CTTGGTTGTTTAATTTGTTTGTTTGCTTTAGCTCTGCTCCCGGAGTCACCTAGTGCAG	8310 fluorescence intensity (a.u.)
GCAGAGAAACGAAGGGTTGACTTTTGGACAGTTCATACACCGGAGTCACCTAGTGCAG	11400 fluorescence intensity (a.u.)
CTCATTGCATCCCAGTTAGGTCTTCATCACACATGACACACGGAGTCACCTAGTGCAG	10500 fluorescence intensity (a.u.)
GGTAGTCTAGGCCCAACTTCTCCGACGCTCCGAAACAGCCCGGAGTCACCTAGTGCAG	8710 fluorescence intensity (a.u.)
CTTACGAAAAATCCCAGTAGGACACATCACGCCCGTTTCCCGGAGTCACCTAGTGCAG	8730 fluorescence intensity (a.u.)
ATGACTCATTTTCTGCGCGCACGCTTCACAAATTACTAAACGGAGTCACCTAGTGCAG	8780 fluorescence intensity (a.u.)
TTTATGTAATGCCTTAAGATCACACATTGACTTATTTTTGCGGAGTCACCTAGTGCAG	8050 fluorescence intensity (a.u.)

A second format for part of the listing above:
Sequence,binding signal
GTCTCGCTCACGCAGTCACCCGCACGCGTGGCGCCCACTCCGGAGTCACCTAGTGCAG,8350 fluorescence intensity (a.u.)
AAATTTCGGGGTGGGATCTAAACATAGCCTAAAAACAGAACGGAGTCACCTAGTGCAG,11500 fluorescence intensity (a.u.)
CACACATGTACAAATTTTACGCTGGATTTTATTTTCTGTTCGGAGTCACCTAGTGCAG,8620 fluorescence intensity (a.u.)
CCTGTATATATGCTCGCATTGTGTCCAACCTTTCGCATCACGGAGTCACCTAGTGCAG,9560 fluorescence intensity (a.u.)
